Test results as given in patent US20170240599 (published 2017).
Ends that are not written are not given here.

Test: general procedure: Fmoc solid-phase peptide synthesis; 2-chlorotrityl resin (CTC)
Conditions: for crude HPLC purity: whole synthesis

CCEYCCNPACTGCY (cysteine pairing not given here)
crude purity (method not given) (oxidative folding step, HPLC): 70% | final HPLC purity (oxidative folding step, run 1): 98.9% | final HPLC purity (oxidative folding step, run 2): >99% | crude HPLC purity (run 1): 81% | crude HPLC purity (run 2): 80%
